# Reference: PubChem BioAssay AID504793 (Drosophila RNAi Screening Center, 2011)
# Assay: 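Genes required for cells to halt at G2/M after double-strand DNA breaks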 (primary screen)
# Cells: Drosophila S2R+ cells
# Reagents: long dsRNA against Drosophila genes, about 0.25 µg dsRNA per well
# Timing: 4 days of dsRNA, then 4 hours of drug before read-out
# Conditions: doxorubicin 0.5 µM for 4 hours to cause double-strand breaks, in cells also given a low, harmless dose of dsRNA against nbs to sensitise the assay
# Measured: 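Mitotic index as the number of phospho-histone H3-positive cells in each well following doxorubicin, given as raw counts without normalisation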
# Direction: mitotic cells: higher = more cells in mitosis, weaker G2 arrest
# Call rule: 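Genes are called active only when high mitotic counts were reproduced with independent dsRNAs and mitosis was checked for delay without damage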
# Calls: active = confirmed in follow-up tests; inactive = not confirmed
# In all, the deposit lists about 23,000 reagents; shown is a random part of those that have a named target and a result. In the full data, 62 (0.27%) were called active. 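Calls come from follow-up tests whose scores are not deposited, so confirmed genes may have low counts here; counts are not normalised per plate.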 Raw values are not corrected between plates. Entries without a mark were called inactive. The numbers tell different reagents against one gene apart.
Gene,reagent no.,"mitotic cells, replicate 1"
Cdlc2 (GeneID 33319),1,5
Cdlc2 (GeneID 33319),2,9
Dlg5 (GeneID 34573),1,4
Dlg5 (GeneID 34573),2,10
ppk12 (GeneID 37566),1,3
ND-B15 (GeneID 36640),1,8
CG12680 (GeneID 31427),1,14
Hel89B (GeneID 41943),1,6
Hel89B (GeneID 41943),2,15
CG14676 (GeneID 40729),1,1
CG5819 (GeneID 37547),1,5
CG5819 (GeneID 37547),2,6
Or19a (GeneID 59214),1,4
pcx (GeneID 31204),1,11
pcx (GeneID 31204),2,10
pcx (GeneID 31204),3,11
pcx (GeneID 31204),4,11
pcx (GeneID 31204),5,8
pcx (GeneID 31204),6,1
sbb (GeneID 44027),1,3
sbb (GeneID 44027),2,4
sbb (GeneID 44027),3,2
Fatp2 (GeneID 37657),1,7
Fatp2 (GeneID 37657),2,5
Fatp2 (GeneID 37657),3,8
Teh4 (GeneID 38501),1,2
Gpo1 (GeneID 47611),1,13
E(spl)m6-BFM (GeneID 43159),1,7
stw (GeneID 35494),1,4
stw (GeneID 35494),2,9
stw (GeneID 35494),3,5
stw (GeneID 35494),4,2
Fbp2 (GeneID 34259),1,5
Fbp2 (GeneID 34259),2,4
SmD3 (GeneID 36306),1,4
SmD3 (GeneID 36306),2,1
CRAT (GeneID 40787),1,3
CRAT (GeneID 40787),2,1
Or98a (GeneID 43341),1,13
Or98a (GeneID 43341),2,3
Vps25 (GeneID 35847),1,5
CG13921 (GeneID 38222),1,11
CG13921 (GeneID 38222),2,7
rho-4 (GeneID 32109),1,6
rho-4 (GeneID 32109),2,16

Entries listed so far whose target name starts with O or o:
Gene,reagent no.,"mitotic cells, replicate 1"
Or19a (GeneID 59214),1,4
Or98a (GeneID 43341),1,13
Or98a (GeneID 43341),2,3
